The campaign covered roughly 360,000 compounds. About 7,500 (2.1%) were called active. Inconclusive results, whose numbers are uncertain, are shown with a selection of clear calls. Calls follow the shape of the dose curve; as a rule, active = well fitted inhibition curve with a large enough effect; inconclusive = small, poorly fitted or top-dose-only effect, or effect the other way; inactive = flat fitted curve, though single readings scatter. A potency beside an inconclusive call is a rough fit, not a confirmed value.
Assay: Nrf2 qHTS screen for inhibitors; also: nearly all actives have a fitted effect of over 60% in size
Conditions: A549 ARE-Fluc reporter, luciferase luminescence, 18-24 h; activity change, negative = inhibition: at 46 µM (top of the series)
How it was run: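 Concentration-response testing used A549 ARE_Fluc cells at 5000 cells/well. Following an 18-24 h compound incubation, viability was read by fluorescence (Ex 405/Em 525) and luciferase output by luminescence.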
% is scaled to controls: 0 for no effect and ±100 for the full control effect; potency is read from the fitted curve at half-maximal effect.

Structure (SMILES) | Potency | activity change, negative = inhibition
Nc1c(C(=O)NCCN2CCOCC2)c2nc3ccccc3nc2n1CCc1ccccc1F | inconclusive: 23.1 µM [falling, single point] | –
COCCN(C(=O)CCC(=O)Nc1cc(C)on1)C(C(=O)NC1CCCC1)c1ccccc1F (stereo not drawn) | inconclusive: 23.1 µM [activator, single point] | –
Cc1ccc(S(=O)(=O)N2CCN(C(=O)c3cc(S(=O)(=O)N4CCOCC4)ccc3Cl)CC2)c(C)c1 | active: 20.6 µM | –
COc1ccccc1NC(=O)CSc1nc2ccccc2n1C(C)=O | inconclusive: 5.8 µM [falling, partial curve, poor fit] | –
O=C(Cn1ccnc1[N+](=O)[O-])NCc1ccccc1 | – | inactive: 1.01%
COc1ccc(OC)c(-c2cc(C(=O)Nc3c(C)n(C)n(-c4ccccc4)c3=O)no2)c1 | – | inactive: -5.53%
O=C(NC1CCCC1)c1ccc(CSc2nc3ccncc3n2Cc2cccc(F)c2)cc1 | inconclusive: 23.1 µM [falling, single point] | –
COc1ccc(CNC(=O)c2ccc(Cl)c(S(=O)(=O)N3CCOCC3)c2)cc1OC | active: 1.3 µM | –
COc1ccc2c(c1OC)C(=O)N(c1ccc(F)cc1)C2 | inconclusive: 9.2 µM [activator, partial curve] | –
O=c1c(Cl)c(NCc2ccc(F)cc2)cnn1C12CC3CC(CC(C3)C1)C2 | inconclusive: 25.9 µM [falling, single point] | –
Cc1ccc(-n2ncc(C(=O)NCc3cccs3)c2C2CCN(C(=O)OC(C)(C)C)CC2)cc1 | inconclusive: 29.1 µM [falling, single point] | –
COC(=O)CCc1c(C)nn(-c2ccccc2)c1C | inconclusive: 29.1 µM [activator, single point] | –
OCCN(CCO)c1ccc(C(c2ccccc2Cl)c2ccc(N(CCO)CCO)cc2Cl)c(Cl)c1 | inconclusive: 29.1 µM [falling, single point] | –
COc1ccc(-c2cc(CCC(=O)N3CCN(c4cc(C)ccc4C)CC3)on2)cc1 | inconclusive: 18.4 µM [falling, single point] | –
Cc1cccc(C)c1NC(=O)C1=C(O)c2sccc2N(C)S1(=O)=O | inconclusive: 29.1 µM [falling, single point] | –
CCOc1ccccc1C(=O)N(C)Cc1cc2cc(OC)ccc2[nH]c1=O | – | inactive: -0.631%
O=c1c2ccccc2cnn1-c1ccc(Br)cc1 | inconclusive: 4.11 µM [activator, partial curve] | –
CCc1cccc2c(-c3ccccc3)nc(SCC(=O)Nc3ccccc3OC)nc12 | – | inactive: 25.4%
COc1ccc(NC(=O)c2sc3ncnc(N4CCN(c5ccccn5)CC4)c3c2C)cc1Cl | active: 14.6 µM | –
Cc1csc(NC(=O)C2CCCC2)n1 | inconclusive: 0.0092 µM [activator, full curve, poor fit] | –
COC(=O)c1sccc1NC(=O)CSc1ccccc1NS(=O)(=O)c1ccc(Cl)cc1 | inconclusive: 29.1 µM [falling, single point] | –
COc1cc(/C=C2\SC(c3ccccc3)=NC2=O)cc(Cl)c1O | – | inactive: -11.4%

Structure (SMILES) | Potency | activity change, negative = inhibition
COc1cc(NC(=O)c2cccs2)c(OC)cc1NC(=O)c1cccs1 | – | inactive: -13.9%
CCC(CO)Oc1cc(NCc2ccccc2F)c2ncn(C(C)C)c2c1 (stereo not drawn) | – | inactive: -24%
CN(CC(=O)NCc1ccco1)CC(=O)Nc1cc(S(C)(=O)=O)ccc1Cl | – | inactive: -15.6%
Cc1cccc(N2CCN(C(=O)C3CCCN(S(=O)(=O)c4ccc5c(c4)oc(=O)n5C)C3)CC2)c1C (stereo not drawn) | inconclusive: 4.11 µM [falling, full curve] | –
NS(=O)(=O)c1ccc(N2N=C(c3ccccc3)CC2c2cccc(Cl)c2)cc1 (stereo not drawn) | inconclusive: 29.1 µM [falling, single point] | –
COc1cccc(CC2(CO)CCCN(Cc3[nH]c4ccc(C)cc4c3C)C2)c1 (stereo not drawn) | inconclusive: 32.6 µM [falling, partial curve, poor fit] | –
CC1CC=CC2C1C(=O)N(Cc1ccccc1)C2c1ccc(-c2cc3ccccc3s2)cc1F (stereo not drawn) | inconclusive: 5.17 µM [activator, partial curve, poor fit] | –
CCCN1CCN(C(=O)c2cc3c(s2)-c2ccccc2OC3)CC1 | inconclusive: 11.6 µM [activator, partial curve] | –
C[n+]1ccccc1/C=C/c1ccc2ncccc2c1 | – | inactive: -17%
N#CCSc1nc2c(sc(=S)n2Cc2ccco2)c(=O)n1-c1ccc(F)cc1 | inconclusive: 32.6 µM [falling, single point] | –
COc1ccc(NC(=O)CC2CCCCC2)cc1OC | inconclusive: 23.1 µM [activator, single point] | –
O=C(c1ccccc1)C(CCc1ccccn1)CCc1ccccn1 | inconclusive: 16.4 µM [activator, partial curve] | –
Cc1ccc(N(Cc2ccc([N+](=O)[O-])cc2)C(=O)c2ccco2)cc1C | – | inactive: -0.667%
O=C(NC1CCCCC1)C(c1ccco1)N(CCc1ccccc1)C(=O)C(F)(F)F (stereo not drawn) | – | inactive: -21.8%
CCOC(=O)c1c(CN2CCOCC2)oc2ccc(OC)cc12 | inconclusive: 6.51 µM [activator, single point] | –
O=S(=O)(c1ccc(Cl)s1)N1CCCc2cccc(O)c21 | inconclusive: 6.51 µM [activator, partial curve, poor fit] | –
O=C(c1ccccc1)N1CCC(CC2CC(c3cccc(Br)c3)=NO2)(C(=O)NCC2CCCCC2)CC1 (stereo not drawn) | inconclusive: 32.6 µM [falling, single point] | –
O=C(CNC(=O)c1cccs1)OCC(=O)c1ccccc1 | inconclusive: 0.651 µM [falling, partial curve, poor fit] | –
O=c1[nH]c2cc3c(cc2cc1CN(Cc1cccnc1)C(=S)NCc1ccco1)OCCO3 | inconclusive: 18.4 µM [activator, partial curve] | –
CC1Cc2cc(S(=O)(=O)CCC(=O)NCc3ccc(Cl)cc3)ccc2N1C(=O)C1CC1 (stereo not drawn) | inconclusive: 29.1 µM [activator, single point] | –
COCCOC(=O)C1=C(C)NC(=O)NC1c1cn(-c2ccccc2)nc1-c1ccccc1 (stereo not drawn) | inconclusive: 18.4 µM [falling, partial curve, poor fit] | –

One compound at a time, from the list above.
COc1ccc(-c2cc(CCC(=O)N3CCN(c4cc(C)ccc4C)CC3)on2)cc1 as listed: Potency: inconclusive: 18.4 µM [falling, single point]
COCCOC(=O)C1=C(C)NC(=O)NC1c1cn(-c2ccccc2)nc1-c1ccccc1 (stereo not drawn) as listed: Potency: inconclusive: 18.4 µM [falling, partial curve, poor fit]
COC(=O)CCc1c(C)nn(-c2ccccc2)c1C as listed: Potency: inconclusive: 29.1 µM [activator, single point]

From PubChem BioAssay AID504444 (National Center for Advancing Translational Sciences (NCATS), 2011)
